Results deposited as PubChem BioAssay AID1259308 (NCATS, 2017).

- Screen: 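Genes whose loss raises luciferase production in HEK293 cells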 (primary screen)
- Cells: human HEK293 embryonic kidney cells stably expressing firefly luciferase (HEK-CMV-Luc2-Hygro)
- Reagent: single siRNA against human genes, 0.8 pmol siRNA per well
- Timing: 72 h
- Measured: 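Luciferase light (ONE-Glo) measured on one replicate plate set and viability (CellTiter-Glo) on the other, scaled to a negative control siRNA, with robust z-scores and luciferase per cell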
- Reading the numbers: total luciferase, z-score and total luciferase, % of control: higher = more reporter protein produced
- Hit rule: 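Active when the median/MAD z-score for overall luciferase is greater than 3; a gene was taken forward for validation with new siRNAs if at least two of its three siRNAs passed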
- Calls: active = raised luciferase; inactive = no rise
The deposit covers about 59,000 reagents; below is a random part of them. About 1,510 of them (2.6%) were called active. 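Calls use total luciferase alone and ignore viability, so some active siRNAs may act by altering cell number.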 A number with no mark means an inactive call. The numbers tell different reagents against one gene apart. Further read-outs or replicates are left out here.

PI4K2B #1 gave total luciferase, z-score -1.04; total luciferase, % of control 61.1.
Against PI4K2B #2, the values are total luciferase, z-score -0.535; total luciferase, % of control 71.2.
Against PI4K2B #3 the deposit lists total luciferase, z-score -1.2; total luciferase, % of control 58.1.
For SPARCL1 #1, the values are total luciferase, z-score 0.796; total luciferase, % of control 97.7.
For SPARCL1 #2 the deposit lists total luciferase, z-score 0.616; total luciferase, % of control 94.1.
After knock-down of SPARCL1 #3, the record shows total luciferase, z-score 0.284; total luciferase, % of control 87.5.
Depletion of OR13C3 #1 came out at: total luciferase, z-score 0.222; total luciferase, % of control 86.3.
Against OR13C3 #2, the entry reads total luciferase, z-score 0.267; total luciferase, % of control 87.2.
Against OR13C3 #3 the deposit lists total luciferase, z-score 0.518; total luciferase, % of control 92.2.
TBX18 #1 gave total luciferase, z-score -1.34; total luciferase, % of control 55.3.
TBX18 #2 showed total luciferase, z-score -1.58; total luciferase, % of control 50.5.
With knock-down of TBX18 #3 the results were total luciferase, z-score -2.04; total luciferase, % of control 41.3.
NDUFAF8 #1 scored total luciferase, z-score -1.57; total luciferase, % of control 50.8.
Silencing of NDUFAF8 #2 resulted in: total luciferase, z-score 3.12 (active); total luciferase, % of control 144.
Depletion of NDUFAF8 #3 gave: total luciferase, z-score 1.21; total luciferase, % of control 106.
With knock-down of SH3PXD2B #1, the screen gave total luciferase, z-score 0.422; total luciferase, % of control 90.3.
SH3PXD2B #2 gave total luciferase, z-score -0.428; total luciferase, % of control 73.4.
Against SH3PXD2B #3 the deposit lists total luciferase, z-score 0.117; total luciferase, % of control 84.2.
SYT7 #1 scored total luciferase, z-score -0.397; total luciferase, % of control 74.
Against SYT7 #2, the entry reads total luciferase, z-score 2.02; total luciferase, % of control 122.
SYT7 #3 gave total luciferase, z-score 1.07; total luciferase, % of control 103.
With knock-down of HMGN2P18 #1, the record shows total luciferase, z-score -0.126; total luciferase, % of control 79.4.
After knock-down of HMGN2P18 #2 the results were total luciferase, z-score 2.36; total luciferase, % of control 129.
After knock-down of HMGN2P18 #3 the results were total luciferase, z-score 0.422; total luciferase, % of control 90.3.

Targets above whose target name starts with S or s (9):
SPARCL1 #1 → total luciferase, z-score = 0.796; total luciferase, % of control = 97.7
SPARCL1 #2 → total luciferase, z-score = 0.616; total luciferase, % of control = 94.1
SPARCL1 #3 → total luciferase, z-score = 0.284; total luciferase, % of control = 87.5
SH3PXD2B #1 → total luciferase, z-score = 0.422; total luciferase, % of control = 90.3
SH3PXD2B #2 → total luciferase, z-score = -0.428; total luciferase, % of control = 73.4
SH3PXD2B #3 → total luciferase, z-score = 0.117; total luciferase, % of control = 84.2
SYT7 #1 → total luciferase, z-score = -0.397; total luciferase, % of control = 74
SYT7 #2 → total luciferase, z-score = 2.02; total luciferase, % of control = 122
SYT7 #3 → total luciferase, z-score = 1.07; total luciferase, % of control = 103

Further records follow:
SH3GL2 #1 scored total luciferase, z-score -0.423; total luciferase, % of control 73.5.
For SH3GL2 #2 the deposit lists total luciferase, z-score 1; total luciferase, % of control 102.
SH3GL2 #3 showed total luciferase, z-score 0.125; total luciferase, % of control 84.4.
ROCK2 #1 showed total luciferase, z-score 0.283; total luciferase, % of control 87.5.
ROCK2 #2 showed total luciferase, z-score -0.0306; total luciferase, % of control 81.3.
Against ROCK2 #3 the deposit lists total luciferase, z-score -0.804; total luciferase, % of control 65.9.
After knock-down of IL4R #1, the record shows total luciferase, z-score -0.955; total luciferase, % of control 62.9.
Silencing of IL4R #2 came out at: total luciferase, z-score 1.71; total luciferase, % of control 116.
Against IL4R #3, the entry reads total luciferase, z-score -0.124; total luciferase, % of control 79.4.
For ADAMTS7 #1, the values are total luciferase, z-score 0.522; total luciferase, % of control 92.3.
For ADAMTS7 #2, the entry reads total luciferase, z-score -0.0295; total luciferase, % of control 81.3.
For ADAMTS7 #3 the deposit lists total luciferase, z-score -0.686; total luciferase, % of control 68.2.
After knock-down of LRP5 #1, the screen gave total luciferase, z-score 1.04; total luciferase, % of control 103.
For LRP5 #2, the entry reads total luciferase, z-score 1.81; total luciferase, % of control 118.
For LRP5 #3 the deposit lists total luciferase, z-score 0.97; total luciferase, % of control 101.
Depletion of CAPZBP1 #1 gave: total luciferase, z-score 0.0942; total luciferase, % of control 83.8.
CAPZBP1 #2 gave total luciferase, z-score 1.73; total luciferase, % of control 116.
CAPZBP1 #3 showed total luciferase, z-score -2.44; total luciferase, % of control 33.3.
